Measurements published in the supplement of paper PMC5949888.
Most values lie at the floor of the assay. Slopes are relative: functional sequences can read slightly below zero.

system: Saccharomyces cerevisiae PS128 hsf1 delta, HSF1(1-493) fusion; test: growth estimate (transactivation domain function in HSF1 fusion, heat-shock survival) (a.u. (slope of normalised read count over time)); higher = stronger growth at 37°C, i.e. more transactivation activity; conditions: library: random library

| Substance | growth estimate |
| --- | --- |
| LVQPPHGSFNSARRSVASLD | < -0.25 |
| LVQVTA | < -0.25 |
| LVRESVR | < -0.25 |
| LVRIPSTCAYELVVLRVQSV | < -0.25 |
| LVRKQVCLLRGLRFPSGNL | < -0.25 |
| LVRLLSGQSWNQQVKLNR | < -0.25 |
| LVRLSLAR | < -0.25 |
| LVRRCNVKL | < -0.25 |
| LVRVLSHWN | < -0.25 |
| LVSICSVYQLRGYPWGNQSR | < -0.25 |
| LVSKRWFNV | < -0.25 |
| LVSLPCAGILRPYT | < -0.25 |
| LVSTDSATLQGNGVRPAVRL | < -0.25 |
| LVT | < -0.25 |
| LVTCGDMLCVQVQ | < -0.25 |
| LVTCRYVAPPIHWTCARSR | < -0.25 |
| LVTFLTDCNYTGLGRF | < -0.25 |
| LVTGSRN | < -0.25 |
| LVTL | < -0.25 |
| LVTRFKAYEDRLRRSSIT | -0.241 |
| LVTRTEFPEGEKNTLSARHT | < -0.25 |
| LVTTLIAGGSGCGSLLPYFS | < -0.25 |
| LVTVKHVSGTESTLHCDIGQ | < -0.25 |
| LVV | < -0.25 |
| LVVAFWSDKIADDPQNTGRP | < -0.25 |

No new results follow: entries from further up.

| Substance | growth estimate |
| --- | --- |
| LVTCGDMLCVQVQ | < -0.25 |
| LVTCRYVAPPIHWTCARSR | < -0.25 |
| LVTFLTDCNYTGLGRF | < -0.25 |
| LVTGSRN | < -0.25 |

(further entries)

| Substance | growth estimate |
| --- | --- |
| LVVNGYVRCRTRSSLRIKSS | < -0.25 |
| LVVPAYMPGGAAHRTRSDTA | -0.228 |
| LVVPMHHARVSIYLLSMGST | < -0.25 |
| LVVQKAY | < -0.25 |
| LVVRRGGRPDLRSRRRTLQG | < -0.25 |
| LVVT | < -0.25 |
| LVVTQVLV | < -0.25 |
| LVWEDFAYQRLLSSGRFN | < -0.25 |
| LVWWTWETGLWNRRHLIRHQ | < -0.25 |
| LVYMYPQTGI | < -0.25 |
| LVYSLGIPHPLN | < -0.25 |
| LWADRFTLRTIIA | < -0.25 |
| LWASFPMFAQKPPSVLYTAP | < -0.25 |
| LWDLRGLRRMKSCLRLTRLY | < -0.25 |
| LWEAINRPEEPVESLGLCLV | < -0.25 |
| LWGHPAGNVGEGEFAGVQR | < -0.25 |
| LWGVLWGSVRWQRP | < -0.25 |
| LWHALQLARNSGWSICC | < -0.25 |
| LWIPQVL | < -0.25 |
| LWKRHNFTYASRLRLCSRWL | < -0.25 |
| LWKVGYSPR | < -0.25 |
| LWLQD | -0.246 |
| LWLRETNTVCQLNDQALWWH | -0.237 |
| LWLRQRSVGRSWQIRVGKPS | < -0.25 |
| LWMVCSRS | < -0.25 |

| Substance | growth estimate |
| --- | --- |
| LWNGIGQLTFGLQ | -0.25 |
| LWNNRTGHGLH | < -0.25 |
| LWNSQWASSHAAFDLGREST | < -0.25 |
| LWQYWLCAVNRESHPRADHL | < -0.25 |
| LWRFGRGGSGKHGGHASSLS | < -0.25 |
| LWRHST | < -0.25 |
| LWRVNYVLGRRLLKRLAVLR | -0.231 |
| LWSA | < -0.25 |
| LWSLF | < -0.25 |
| LWSNLYGLNLVTSRVYSIWY | < -0.25 |
| LWSTNATRPHTLRLERSRLA | < -0.25 |
| LWVGLLVVLGEANDLSA | < -0.25 |
| LWVHRFAKNRSGKCLVGNDL | < -0.25 |
| LYALVTFRD | < -0.25 |
| LYCRAPHMTT | < -0.25 |
| LYCTSP | < -0.25 |
| LYDLLRQFVRLPWALNK | -0.239 |
| LYEIRFRNEAEQVRAARPQR | < -0.25 |
| LYGFFWFHLAPCRSAVGTRC | < -0.25 |
| LYGVYSLLIVRSGCSVK | -0.242 |
| LYHP | < -0.25 |
| LYHRTCVRSDRWQIAGCYWS | < -0.25 |
| LYHVLIAD | < -0.25 |
| LYIDDQRRGVLREM | < -0.25 |
| LYKRCRIEREAHALNSSLYL | -0.25 |

| Substance | growth estimate |
| --- | --- |
| LYLSADVLVLTPRK | < -0.25 |
| LYLSESKRTHECQWR | < -0.25 |
| LYLTLRTQKPFISAEARSAG | < -0.25 |
| LYPDPQSMGRNHLDHGCQIL | < -0.25 |
| LYPNTRT | < -0.25 |
| LYPRCGHVLEGTQYRHGVCV | < -0.25 |
| LYPRSILVIAYLYSASLTHR | < -0.25 |
| LYRGPNRCDYLAINPWEVVA | < -0.25 |
| LYRPLLFI | < -0.25 |
| LYRSVITPPQVSAMALSALP | < -0.25 |
| LYSRADIC | < -0.25 |
| LYSTDEGIYDVSKGTTTGAA | < -0.25 |
| LYSVSCEFRMRA | < -0.25 |
| LYTRWQV | < -0.25 |
| LYV | < -0.25 |
| LYVQPTVFVHPVGRVEAFCT | < -0.25 |
| LYVRRVLYCKS | < -0.25 |
| MAF | < -0.25 |
| MAGCSRSTSGRDFIFSLPRL | < -0.25 |
| MAGSIGAAGST | < -0.25 |
| MALNRLE | < -0.25 |
| MAR | < -0.25 |
| MCAYGLTRRTSVEVRSVSPA | < -0.25 |
| MCERRVSRHVIGYSRLGLSA | < -0.25 |
| MCGECT | < -0.25 |
